Data as given in PubChem BioAssay AID1259308 (NCATS, 2017).
In all, the deposit lists about 59,000 reagents; this is a random part of them. About 1,510 of them (2.6%) were called active. 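Calls use total luciferase alone and ignore viability, so some active siRNAs may act by altering cell number.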 Entries without a mark were called inactive. Not all columns of the deposit are shown.

Aim: 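Knock-downs that increase output of a recombinant reporter protein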 (primary screen)
System: human HEK293 embryonic kidney cells stably expressing firefly luciferase (HEK-CMV-Luc2-Hygro)
Reagent: single siRNA against human genes, 0.8 pmol siRNA per well
Timing: 72 h
Measurement: 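Luciferase light (ONE-Glo) measured on one replicate plate set and viability (CellTiter-Glo) on the other, scaled to a negative control siRNA, with robust z-scores and luciferase per cell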
Direction: total luciferase, z-score: higher = more reporter protein produced
Rule for the call: 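Active when the median/MAD z-score for overall luciferase is greater than 3; a gene was taken forward for validation with new siRNAs if at least two of its three siRNAs passed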
Calls: active = raised luciferase; inactive = no rise

total luciferase, z-score, by target gene and reagent
ZNF561 (zinc finger protein 561): SID160754442 -0.122; SID160754443 0.433; SID160754444 0.0687
CDHR2 (cadherin related family member 2): SID160742249 -0.28; SID160742250 1.33; SID160742251 -2.69
AGAP4 (ArfGAP with GTPase domain, ankyrin repeat and PH domain 4): SID160755694 1.62; SID160755695 0.342; SID160755696 0.0485
KRTAP5-4 (keratin associated protein 5-4): SID160725173 0.311; SID160733180 0.143; SID160765580 0.161
MCFD2: SID160753687 -0.486; SID160753688 -0.00748; SID160753689 -0.659
LTBR (lymphotoxin beta receptor): SID160776772 -0.538; SID160776773 -0.345; SID160776774 -0.375
LINC00460 (long independently transcribed non-coding RNA 460): SID160771570 -0.55; SID160771571 -0.594; SID160771572 0.626
TAAR8 (trace amine associated receptor 8): SID160751206 -0.58; SID160751207 0.0241; SID160751208 1.51
WDR45 (WD repeat domain 45): SID160730056 1.84; SID160730057 1.35; SID160730058 0.248
WBP4 (WW domain binding protein 4): SID160730170 -0.506; SID160730171 0.284; SID160730172 -1.03
EAF1 (ELL associated factor 1): SID160753239 -1.46; SID160753240 -1.09; SID160753241 -1.4
KRTAP3-1 (keratin associated protein 3-1): SID160751522 0.619; SID160751523 -0.214; SID160751524 -0.418

10 entries from above, reformatted:
target gene,PubChem SID,"total luciferase, z-score"
ZNF561 (zinc finger protein 561),SID160754442,-0.122
ZNF561 (zinc finger protein 561),SID160754443,0.433
ZNF561 (zinc finger protein 561),SID160754444,0.0687
CDHR2 (cadherin related family member 2),SID160742249,-0.28
CDHR2 (cadherin related family member 2),SID160742250,1.33
CDHR2 (cadherin related family member 2),SID160742251,-2.69
"AGAP4 (ArfGAP with GTPase domain, ankyrin repeat and PH domain 4)",SID160755694,1.62
"AGAP4 (ArfGAP with GTPase domain, ankyrin repeat and PH domain 4)",SID160755695,0.342
"AGAP4 (ArfGAP with GTPase domain, ankyrin repeat and PH domain 4)",SID160755696,0.0485
KRTAP5-4 (keratin associated protein 5-4),SID160725173,0.311

The results go on:
total luciferase, z-score, by target gene and reagent
RPS14 (ribosomal protein S14): SID160716184 -2.77; SID160716185 -2.89; SID160733720 -3.16
ALDH1A1 (aldehyde dehydrogenase 1 family member A1): SID160716231 1.04; SID160716241 1.17; SID160716252 -1.21
DLK2 (delta like non-canonical Notch ligand 2): SID160724526 0.0314; SID160724527 -0.276; SID160724528 -0.64
ADGRD1 (adhesion G protein-coupled receptor D1): SID160762885 -0.102; SID160762886 0.495; SID160762887 -1.08
RGS10 (regulator of G protein signaling 10): SID160715874 2.18; SID160715877 0.357; SID160731658 -0.401
BPIFA3 (BPI fold containing family A member 3): SID160756810 -0.874; SID160756811 4.27 (active); SID160756812 -0.0659
MAP4K5 (mitogen-activated protein kinase kinase kinase kinase 5): SID160730146 0.55; SID160730147 -0.807; SID160730148 -0.993
PTDSS1 (phosphatidylserine synthase 1): SID160771857 -0.365; SID160771940 -0.261; SID160772038 0.0166
TLK2 (tousled like kinase 2): SID160729733 2.83; SID160729735 -0.196; SID160730491 2.61
ATG9A (autophagy related 9A): SID160748564 -0.62; SID160748565 -0.919; SID160748566 4.6 (active)
COL5A3 (collagen type V alpha 3 chain): SID160739622 -2.13; SID160739624 0.288; SID160739625 1.26
TSR1 (TSR1 ribosome maturation factor): SID160744176 0.133; SID160744177 -0.0283; SID160744178 0.00226
UMPS (uridine monophosphate synthetase): SID160718623 -0.283; SID160718624 -0.719; SID160718625 2.52
